Positions count from the first letter of the chain named. These are yes or no findings as the source states them, for the method shown. Some binding calls cover weakened binding; strength is not graded here.
B1: ANb24-Alpaca1-4M-2SP-149 (Fc fusion)
chain: EVQLVESGGGLVQPGGSLRLSCTASGSTLDIYAIGWFRQAPGKEREGVSCITGSGSSTRYAHSVTGRFTISRDNAKNTVFLQMNSLKPEDTAVYYCAKARLLSRLCVPSPDFESWGQGTQVTVSS
notes: also called ANb24-A1-4M-2SP-149; ANb24-Alpacal-4M-2SP-149; not shown: Fc joined to the VHH by overlap PCR
B2: ANb24-Alpaca1-4M-2SP-273 (Fc fusion)
chain: EVQLVESGGGLVQPGGSLRLSCAASGSTLDYYAIGWFRQAPGKEREGVSCISGSGGSTRYADSVTGRFTISKDSAKNTVYLEMNSLKPEDTAVYYCARARLLSRLCVPSADFDSWGQGTQVTVSS
notes: also called ANb24-A1-4M-2SP-273; ANb24-Alpacal-4M-2SP-273; not shown: Fc joined to the VHH by overlap PCR
B3: ANb24-Alpaca1-4M-2SP-180 (Fc fusion)
chain: B1 chain with E1Q, V2P, L4F, H62D, E89D, R104M
notes: also called ANb24-A1-4M-2SP-180; ANb24-Abpacal-4M-2SP-180; not shown: Fc joined to the VHH by overlap PCR
B4: ANb24-Alpaca1-4M-2SP-175 (Fc fusion)
chain: QPHFVESGGGLVQPGGSLRLSCVASGFTFEYVPIGWFRQAPGKEREGVSCITPTGITRNADSVKGRFTISRDNAKNTVYLQLNSLKPEDTAVYYCAKARLLSTSCVQTSDARGQGTQVTVSS
notes: also called ANb24-A1-4M-2SP-175; ANb24-Alpacal-4M-2SP-175; not shown: Fc joined to the VHH by overlap PCR
B5: ANb24-Alpaca1-4M-2SP-226 (Fc fusion)
chain: QLQLVESGGGLVQPGGTLRLSCAASGVTLEYYSIGWFRQSPGKEREGVSCISGGGVQRYADSAEGRFAISRDNAKNMVYLQMNNLEPEDTAVYYCARARLLMRGCAPMDNYWGQGTQVTVSS
notes: also called ANb24-A1-4M-2SP-226; ANb24-Alpacal-4M-2SP-226; not shown: Fc joined to the VHH by overlap PCR
B6: ANb24-Alpaca1-4M-2SP-317 (Fc fusion)
chain: QLQLVESGGDLVQPGGSLRLSCTASGHTLEYYAIGWFRQAPGKEREGVSCIIGSGGSTRYFDSVLGRFTISRDNAKNTVFLQMNSLKPEDTAVYYCAKVRLLSRLCVPSSDFDSWGQGTQVTVSS
notes: also called ANb24-A1-4M-2SP-317; ANb24-Alpacal-4M-2SP-317; not shown: Fc joined to the VHH by overlap PCR
B7: ANb24-Alpaca1-4M-2SP-335 (Fc fusion)
chain: QPQFVESGGGLVQPGGTLRLSCAASGFTFEYYTIGWFRQTPGKEREGVSCITAAGVPRNADSAKGRFTISRDNAKNMVYLQMNNLKPEDTAVYYCAQARLLSTSCAPMNDYWGQGTQVTVSS
notes: also called ANb24-A1-4M-2SP-335; ANb24-Alpacal-4M-2SP-335; not shown: Fc joined to the VHH by overlap PCR
B8: ANb24-Alpaca1-4M-2SP-332 (Fc fusion)
chain: QVQLVESGGGLVQPGGSLRLSCAASGSTLASYAIGWFRQAPGKEREGISCISGSGGSTRAADSVQGRFTISRDNAKNTVSLQMNSLKPEDTAIYYCAKVRLLSRGCVPSPDFDSWGQGTQVTVSS
notes: also called ANb24-A1-4M-2SP-332; ANb24-Alpacal-4M-2SP-332; not shown: Fc joined to the VHH by overlap PCR

Chains of the proteins cited; added tags and fusions are not shown. Residues count along the entry.
UniProt P25942, residues 21-193: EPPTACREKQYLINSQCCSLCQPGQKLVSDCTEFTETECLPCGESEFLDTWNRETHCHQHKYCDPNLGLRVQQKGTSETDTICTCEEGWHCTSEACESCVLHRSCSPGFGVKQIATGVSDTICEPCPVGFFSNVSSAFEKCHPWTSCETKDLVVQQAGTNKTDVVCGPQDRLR

Each binder was assayed against human CD40/His protein (human) (UniProt P25942) (assay: ELISA, 293F culture supernatant on CD40/His).

binding | Binder
binds | B1
binds | B2
binds | B3
binds | B4
binds | B5
binds | B6
binds | B7
binds | B8

The binders below were run against human CD40/His protein (human) (UniProt P25942) (assay: ELISA, purified antibody on coated CD40/His (2 ug/mL), anti-human IgG-HRP).

binding | Binder
binds | B1
binds | B2
binds | B3
binds | B4
binds | B5
binds | B6
binds | B7
binds | B8

From US20250188180A1 (BIOINTRON BIOLOGICAL, published 2025)
